# According to the supplement of paper PMC12067093, “Discovery and optimisation of a covalent ligand for TRIM25 and its application to targeted protein ubiquitination” (Chemical Science, 2025):
# Sequences of proteins named here, by UniProt entry; tags and fusion partners are left off. A change or cut given only in a name is not applied to a line headed by its entry.
# UniProt Q9P260: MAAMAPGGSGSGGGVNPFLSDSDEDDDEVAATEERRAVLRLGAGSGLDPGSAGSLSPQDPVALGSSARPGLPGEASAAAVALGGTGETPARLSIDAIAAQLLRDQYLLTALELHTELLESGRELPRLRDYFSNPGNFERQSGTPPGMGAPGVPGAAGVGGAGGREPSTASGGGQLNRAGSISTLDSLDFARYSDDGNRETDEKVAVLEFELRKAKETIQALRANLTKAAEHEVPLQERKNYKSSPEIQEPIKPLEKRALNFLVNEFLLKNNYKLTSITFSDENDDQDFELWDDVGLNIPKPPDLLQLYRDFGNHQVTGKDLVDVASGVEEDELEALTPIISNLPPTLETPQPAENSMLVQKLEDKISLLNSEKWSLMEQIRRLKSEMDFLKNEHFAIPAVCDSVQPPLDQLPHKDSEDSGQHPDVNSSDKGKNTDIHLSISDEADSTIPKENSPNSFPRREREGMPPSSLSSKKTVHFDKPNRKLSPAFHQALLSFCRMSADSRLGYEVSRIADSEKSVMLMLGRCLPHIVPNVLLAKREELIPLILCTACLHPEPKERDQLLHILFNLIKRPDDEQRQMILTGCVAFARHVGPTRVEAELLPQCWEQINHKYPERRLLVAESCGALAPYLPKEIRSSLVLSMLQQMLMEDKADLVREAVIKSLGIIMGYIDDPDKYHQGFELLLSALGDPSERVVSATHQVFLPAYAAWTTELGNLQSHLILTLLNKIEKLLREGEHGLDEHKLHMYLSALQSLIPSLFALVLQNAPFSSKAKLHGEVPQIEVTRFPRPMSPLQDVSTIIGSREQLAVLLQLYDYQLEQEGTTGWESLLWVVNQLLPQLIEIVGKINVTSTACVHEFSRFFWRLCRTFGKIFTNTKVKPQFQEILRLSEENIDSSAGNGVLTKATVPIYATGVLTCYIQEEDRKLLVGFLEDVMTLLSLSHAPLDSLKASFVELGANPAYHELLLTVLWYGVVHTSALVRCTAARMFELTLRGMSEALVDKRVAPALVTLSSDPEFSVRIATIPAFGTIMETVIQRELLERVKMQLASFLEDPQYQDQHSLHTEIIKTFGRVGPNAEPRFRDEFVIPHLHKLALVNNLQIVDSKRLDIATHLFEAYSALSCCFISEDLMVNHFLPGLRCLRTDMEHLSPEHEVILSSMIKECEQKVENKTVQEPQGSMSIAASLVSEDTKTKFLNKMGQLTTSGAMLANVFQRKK
# The other results are listed elsewhere or left out.
# Biological target: RELCH_Q9P260_526_CLPHIVPNVLLAK (UniProt Q9P260)
# Test: probe-labelled cysteine peptide fold change vs DMSO (competition) (log2 fold change); higher = less target engagement (more negative = stronger competition)
# Settings: THP-1, incubation time: 4 h
# 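Also: competitive chemoproteomic profiling in live THP-1 cells with an iodoacetamide desthiobiotin (IA-DTB) probe, comparing probe-labelled peptide intensities in compound-treated cells against DMSO-treated controls.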
compound,measurement,setting,value
CC1Cc2ccccc2N1C(=O)C1CCCN(C(=O)CCl)C1 (mixture of isomers) [TRIM25 ligand 11 (diastereomer mixture)],probe-labelled cysteine peptide fold change,10 µM,-0.0429
same,probe-labelled cysteine peptide fold change,50 µM,0.0144
